Source: PubChem BioAssay AID743255 (National Center for Advancing Translational Sciences (NCATS), 2014)
Hit rate of the full screen: of about 390,000 compounds, about 910 (0.23%) were called active. Inconclusive means that the source gave no clear call. Such entries were picked first, then a sample of the others. Calls follow the shape of the dose curve; as a rule, active = well fitted inhibition curve with a large enough effect; inconclusive = small, poorly fitted or top-dose-only effect; inactive = no such curve, though single readings can be large or run the other way. Where the call is inconclusive, the potency comes from a doubtful curve fit.

Amino acid sequences for entries named in this document (tags omitted). A change or cut given only in a name is not applied to a line headed by its entry.
UniProt O94782: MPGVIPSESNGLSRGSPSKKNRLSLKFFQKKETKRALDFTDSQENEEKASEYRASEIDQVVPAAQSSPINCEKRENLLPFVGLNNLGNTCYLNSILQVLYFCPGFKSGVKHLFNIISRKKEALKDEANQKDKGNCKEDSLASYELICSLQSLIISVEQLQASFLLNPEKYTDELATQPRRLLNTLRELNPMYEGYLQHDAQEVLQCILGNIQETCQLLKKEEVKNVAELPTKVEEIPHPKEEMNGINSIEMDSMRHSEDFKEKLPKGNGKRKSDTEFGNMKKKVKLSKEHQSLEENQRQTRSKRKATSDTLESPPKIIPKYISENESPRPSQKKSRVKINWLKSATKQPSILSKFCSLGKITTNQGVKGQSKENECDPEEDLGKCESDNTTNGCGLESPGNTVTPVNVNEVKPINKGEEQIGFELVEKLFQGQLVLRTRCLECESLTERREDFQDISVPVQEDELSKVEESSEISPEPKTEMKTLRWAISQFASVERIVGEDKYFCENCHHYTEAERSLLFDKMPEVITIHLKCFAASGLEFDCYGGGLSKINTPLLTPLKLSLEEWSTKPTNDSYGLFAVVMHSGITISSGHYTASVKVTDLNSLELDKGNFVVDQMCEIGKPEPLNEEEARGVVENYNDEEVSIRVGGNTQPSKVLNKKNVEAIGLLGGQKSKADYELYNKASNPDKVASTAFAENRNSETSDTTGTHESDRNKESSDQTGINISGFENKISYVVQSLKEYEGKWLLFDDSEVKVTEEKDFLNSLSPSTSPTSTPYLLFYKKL

Molecular target: Ubiquitin carboxyl-terminal hydrolase 1 (Homo sapiens) (UniProt O94782)
Experiment: Inhibitors of USP1/UAF1: Primary Screen; also: nearly all actives have a fitted effect of over 60% in size
Conditions: recombinant USP1/UAF1, Ub-Rhodamine cleavage fluorescence; activity change, negative = inhibition: at 57.1 µM (top of the series)
Summary of the method: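 1 nM enzyme complex + cpd, 15 min RT; start with Ub-Rho 150nM final; kinetic fluorescence ex 480/em 540, 6 reads q60 s. Buffer 50mM HEPES pH 7.8, 0.5mM EDTA, 0.1 mg/ml BSA, 1mM TCEP, 0.01% Tween-20.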
% is scaled to controls: 0 for no effect and ±100 for the full control effect; potency is read from the fitted curve at half-maximal effect.

Compound | activity change, negative = inhibition | Potency
Cc1cccc(C)c1N/C=C/c1onc(C)c1[N+](=O)[O-] | inactive: 5.15% | 
COc1ccccc1NC(=O)Cn1c(SCC(=O)NCc2ccccc2)nc2ccccc21 | inactive: -7.18% | 
COCc1cc(=O)[nH]c(SCCS(=O)(=O)c2ccc(Cl)cc2Cl)n1 |  | inconclusive: 50.1 µM [inhibitor, partial curve, poor fit]
Cc1c(C(=O)N2CCCCC2)oc2ccc(Br)cc12 | inactive: -16% | 
CCNc1nc(NCC)n2c(SCC(=O)Nc3ccc(NC(C)=O)cc3)nnc2n1 | inactive: -5.69% | 
C/C(CC(=O)Nc1cccc2c1CCCC2)=N\NC=O |  | inconclusive: 7.94 µM [inhibitor, single point]
CCOC(=O)C1=C(CNCc2ccccc2)NC(=O)NC1c1ccc(C)cc1 (stereo not drawn) |  | inconclusive: 50.1 µM [inhibitor, partial curve, poor fit]
CCNc1c(NC(=O)c2ccccc2OCC)c(=O)oc2ccccc12 | inactive: -17.3% | 
COc1ccc(N(C(=O)c2ccccc2C)S(=O)(=O)c2ccc3c(c2)n(C)c(=O)n3C)cc1 |  | inconclusive: 0.251 µM [inhibitor, full curve, poor fit]
Cc1ccc(/C=C2/SC(=S)N(c3ccc(S(=O)(=O)Nc4nccs4)cc3)C2=O)cc1 |  | inconclusive: 56.2 µM [inhibitor, partial curve, poor fit]
O=C(CN1C(=O)/C(=C/c2ccco2)SC1=S)Nc1ccc(C(=O)O)c(O)c1 |  | inconclusive: 25.1 µM [inhibitor, partial curve]
Cc1ccc(NC(=O)c2ccc3c(=O)n4nc(Nc5ccccc5C)sc4nc3c2)cc1C |  | inconclusive: 0.251 µM [inhibitor, full curve]
Cc1[nH]c(C)c(S(=O)(=O)N2CCN(c3cccc(C(F)(F)F)c3)CC2)c1C(=O)N1CCCCC1 |  | inconclusive: 44.7 µM [inhibitor, partial curve, poor fit]
CCN(CC)c1ccc(N=Nc2ncn[nH]2)cc1 |  | inconclusive: 44.7 µM [inhibitor, partial curve]
Cc1cc(O)c(C(c2ccccc2Cl)N2CCCCC2)c(=O)n1Cc1ccco1 (stereo not drawn) |  | inconclusive: 70.8 µM [inhibitor, partial curve, poor fit]
Cc1ccc(C(C)C)c(OCC(=O)Nc2c(C(=O)c3ccc(F)cc3)oc3ccccc23)c1 |  | inconclusive: 0.794 µM [inhibitor, full curve, poor fit]
CC1(C)CC(=O)C(C(c2cc([N+](=O)[O-])ccc2Cl)C2C(=O)CC(C)(C)CC2=O)C(=O)C1 | inactive: -10.3% | 
O=C(Nc1ccc(F)cc1)c1cccc(N2CCCS2(=O)=O)c1 |  | inconclusive: 7.94 µM [inhibitor, single point]

An excerpt of these results, as tab-separated lines:
Compound	activity change, negative = inhibition	Potency
Cc1c(C(=O)N2CCCCC2)oc2ccc(Br)cc12	inactive: -16%	
CCNc1nc(NCC)n2c(SCC(=O)Nc3ccc(NC(C)=O)cc3)nnc2n1	inactive: -5.69%	
